Experimental data from PubChem BioAssay AID260 (DTP/NCI, 2004).
The list does not hold the whole screen: it gathers some chemical classes. Not every dose and run of a compound is shown. T/C is the treated group as % of the vehicle group. Where survival is the endpoint, this PubChem deposit counts one and a half times the control or more as active, and values a quarter to a half above the control carry no call in these data; other NCI protocols may use other cut-offs. Schedule codes are those of the source, taken here to give the interval after Q, in days (D) or hours (H), and the number of doses after X. Some T/C values are marked as having no survivor count here; that says nothing about deaths at the dose.

System: CD2F1 mice, intracerebral L1210 leukemia, survival T/C
Assay: NCI In Vivo Anticancer Drug Screen. Data for tumor model L1210 Leukemia (intracerebral) in CD2F1 (CDF1) mice
Conditions: T/C endpoint: median survival time, schedule: Q01DX005 (ip), vehicle: suspension in saline, higher T/C = longer survival
Procedure: The antitumor activity of compounds was measured in mice bearing transplantable tumors. Survival or tumor size were measured and the results are expressed as the measurement made in the treated group (T) divided by the measurement made in the vehicle treated control group (C). The tumor model used in this assay is L1210 Leukemia (intracerebral) in CD2F1 (CDF1) mice

CC(=O)OCC12CCC(C)=CC1OC1C(O)C(OC(C)=O)C2(C)C12CO2 (stereo not drawn)
T/C (dose: 2.0 mg/kg/injection): 114 % of control [survivor count not shown]
T/C (dose: 4.0 mg/kg/injection): 126 % of control [survivor count not shown]
T/C (dose: 8.0 mg/kg/injection): 119 % of control [survivor count not shown]
